# This is one part of the list.
# B1: AT5G17240(42) (Arabidopsis thaliana), Q6NQJ8 (protein)
# chain: MDLEHQTMETFLRWAAEIGISDSIDSSRFRDSCLGHSLSVSDFPDAGGRGLGAARELKKGELVLKVPRKALMTTESIIAKDLKLSDAVNLHNSLSSTQILSVCLLYEMSKEKKSFWYPYLFHIPRDYDLLATFGNFEKQALQVEDAVWATEKATAKCQSEWKEAGSLMKELELKPKFRSFQAWLWASATISSRTLHVPWDSAGCLCPVGDLFNYDAPGDYSNTPQGPESANNVEEAGLVVETHSERLTDGGFEEDVNAYCLYARRNYQLGEQVLLCYGTYTNLELLEHYGFMLEENSNDKVFIPLETSLFSLASSWPKDSLYIHQDGKLSFALISTLRLWLIPQSQRDKSVMRLVYAGSQISVKNEILVMKWMSEKCGSVLRDLPTSVTEDTVLLHNIDKLQDPELRLEQKETEAFGSEVRAFLDANCLWDVTVLSGKPIEFSRKTSRMLSKWRWSVQWRLSYKRTLADCISYCNEKMNNLLGTQDRLRDL
# What was measured:
# Assay in all cases: glycan array binding signal (z-score within array); higher = stronger binding
# Conditions in all cases: glycan notation: IUPAC condensed, linker removed
# [1] = target: Gal(b1-4)GalNAc(b1-3)[Fuc(a1-2)]Gal(b1-4)GlcNAc
# Summary of the method: (§1)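 The binding signal is a Z-score computed within each array and averaged over linkers. Arrays of the same protein sequence at different concentrations or buffers were also averaged together. Data originate from 3228 arrays in the Consortium for Functional Glycomics database, kept only where the protein sequence was available.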
# Gal(b1-4)Glc = target: Gal(b1-4)Glc
# Summary of the method: as §1
# Gal(b1-4)Glc6S = target: Gal(b1-4)Glc6S
# Summary of the method: as §1
# Gal(b1-4)GlcNAc = target: Gal(b1-4)GlcNAc
# Summary of the method: as §1
# [2] = target: Gal(b1-4)GlcNAc(a1-6)Gal(b1-4)GlcNAc
# Summary of the method: as §1
# Gal(b1-4)GlcNAc(b1-2)Man = target: Gal(b1-4)GlcNAc(b1-2)Man
# Summary of the method: as §1
# [3] = target: Gal(b1-4)GlcNAc(b1-2)Man(a1-3)Man(b1-4)GlcNAc(b1-4)GlcNAc
# Summary of the method: as §1
# [4] = target: Gal(b1-4)GlcNAc(b1-2)Man(a1-3)[Gal(b1-4)GlcNAc(b1-2)Man(a1-6)]Man(b1-4)GlcNAc(b1-4)GlcNAc
# Summary of the method: as §1
# [5] = target: Gal(b1-4)GlcNAc(b1-2)Man(a1-3)[Gal(b1-4)GlcNAc(b1-2)Man(a1-6)]Man(b1-4)GlcNAc(b1-4)[Fuc(a1-6)]GlcNAc
# Summary of the method: as §1
# [6] = target: Gal(b1-4)GlcNAc(b1-2)Man(a1-3)[Gal(b1-4)GlcNAc(b1-2)Man(a1-6)][Gal(b1-4)GlcNAc(b1-4)]Man(b1-4)GlcNAc(b1-4)[Fuc(a1-6)]GlcNAc
# Summary of the method: as §1
# [7] = target: Gal(b1-4)GlcNAc(b1-2)Man(a1-3)[Gal(b1-4)GlcNAc(b1-2)Man(a1-6)][GlcNAc(b1-4)]Man(b1-4)GlcNAc(b1-4)[Fuc(a1-6)]GlcNAc
# Summary of the method: as §1
# [8] = target: Gal(b1-4)GlcNAc(b1-2)Man(a1-3)[GlcNAc(b1-2)Man(a1-6)]Man(b1-4)GlcNAc(b1-4)GlcNAc
# Summary of the method: as §1
# [9] = target: Gal(b1-4)GlcNAc(b1-2)Man(a1-3)[GlcNAc(b1-4)][Gal(b1-4)GlcNAc(b1-2)Man(a1-6)]Man(b1-4)GlcNAc(b1-4)GlcNAc
# Summary of the method: as §1
# [10] = target: Gal(b1-4)GlcNAc(b1-2)Man(a1-3)[Man(a1-6)]Man(b1-4)GlcNAc(b1-4)GlcNAc
# Summary of the method: as §1
# [11] = target: Gal(b1-4)GlcNAc(b1-2)Man(a1-6)Man(b1-4)GlcNAc(b1-4)GlcNAc
# Summary of the method: as §1
# [12] = target: Gal(b1-4)GlcNAc(b1-2)Man(a1-6)[GlcNAc(b1-2)Man(a1-3)]Man(b1-4)GlcNAc(b1-4)GlcNAc
# Summary of the method: as §1
# [13] = target: Gal(b1-4)GlcNAc(b1-2)Man(a1-6)[Man(a1-3)]Man(b1-4)GlcNAc(b1-4)GlcNAc
# Summary of the method: as §1
# [14] = target: Gal(b1-4)GlcNAc(b1-2)[Gal(b1-4)GlcNAc(b1-4)]Man(a1-3)[Gal(b1-4)GlcNAc(b1-2)Man(a1-6)]Man(b1-4)GlcNAc(b1-4)GlcNAc
# Summary of the method: as §1
# [15] = target: Gal(b1-4)GlcNAc(b1-2)[Gal(b1-4)GlcNAc(b1-4)]Man(a1-3)[Gal(b1-4)GlcNAc(b1-2)[Gal(b1-4)GlcNAc(b1-6)]Man(a1-6)]Man(b1-4)GlcNAc(b1-4)GlcNAc
# Summary of the method: as §1
# [16] = target: Gal(b1-4)GlcNAc(b1-2)[Gal(b1-4)GlcNAc(b1-4)]Man(a1-3)[GlcNAc(b1-4)][Gal(b1-4)GlcNAc(b1-2)Man(a1-6)]Man(b1-4)GlcNAc(b1-4)GlcNAc
# Summary of the method: as §1
# [17] = target: Gal(b1-4)GlcNAc(b1-2)[Gal(b1-4)GlcNAc(b1-4)]Man(a1-3)[GlcNAc(b1-4)][Gal(b1-4)GlcNAc(b1-2)[Gal(b1-4)GlcNAc(b1-6)]Man(a1-6)]Man(b1-4)GlcNAc(b1-4)GlcNAc
# Summary of the method: as §1
# [18] = target: Gal(b1-4)GlcNAc(b1-2)[Gal(b1-4)GlcNAc(b1-6)]Man(a1-6)[Gal(b1-4)GlcNAc(b1-2)Man(a1-3)]Man(b1-4)GlcNAc(b1-4)GlcNAc
# Summary of the method: as §1
# [19] = target: Gal(b1-4)GlcNAc(b1-2)[Gal(b1-4)GlcNAc(b1-6)]Man(a1-6)[Gal(b1-4)GlcNAc(b1-2)Man(a1-3)]Man(b1-4)GlcNAc(b1-4)[Fuc(a1-6)]GlcNAc
# Summary of the method: as §1
# [20] = target: Gal(b1-4)GlcNAc(b1-2)[Gal(b1-4)GlcNAc(b1-6)]Man(a1-6)[GlcNAc(b1-4)][Gal(b1-4)GlcNAc(b1-2)Man(a1-3)]Man(b1-4)GlcNAc(b1-4)GlcNAc
# Summary of the method: as §1
# [21] = target: Gal(b1-4)GlcNAc(b1-2)[Gal(b1-4)GlcNAc(b1-6)]Man(a1-6)[GlcNAc(b1-4)][Gal(b1-4)GlcNAc(b1-2)[Gal(b1-4)GlcNAc(b1-4)]Man(a1-3)]Man(b1-4)GlcNAc(b1-4)[Fuc(a1-6)]GlcNAc
# Summary of the method: as §1
# [22] = target: Gal(b1-4)GlcNAc(b1-3)Gal(b1-3)GalNAc
# Summary of the method: as §1
# [23] = target: Gal(b1-4)GlcNAc(b1-3)Gal(b1-3)GlcNAc
# Summary of the method: as §1
# [24] = target: Gal(b1-4)GlcNAc(b1-3)Gal(b1-4)Glc
# Summary of the method: as §1
# [25] = target: Gal(b1-4)GlcNAc(b1-3)Gal(b1-4)GlcNAc
# Summary of the method: as §1
# [26] = target: Gal(b1-4)GlcNAc(b1-3)Gal(b1-4)GlcNAc(b1-2)Man(a1-3)[Gal(b1-4)GlcNAc(b1-3)Gal(b1-4)GlcNAc(b1-2)Man(a1-6)]Man(b1-4)GlcNAc(b1-4)GlcNAc
# Summary of the method: as §1
# [27] = target: Gal(b1-4)GlcNAc(b1-3)Gal(b1-4)GlcNAc(b1-2)Man(a1-3)[Gal(b1-4)GlcNAc(b1-3)Gal(b1-4)GlcNAc(b1-2)Man(a1-6)]Man(b1-4)GlcNAc(b1-4)[Fuc(a1-6)]GlcNAc
# Summary of the method: as §1
# [28] = target: Gal(b1-4)GlcNAc(b1-3)Gal(b1-4)GlcNAc(b1-2)[Gal(b1-4)GlcNAc(b1-3)Gal(b1-4)GlcNAc(b1-6)]Man(a1-6)[Gal(b1-4)GlcNAc(b1-3)Gal(b1-4)GlcNAc(b1-2)Man(a1-3)]Man(b1-4)GlcNAc(b1-4)GlcNAc
# Summary of the method: as §1
# [29] = target: Gal(b1-4)GlcNAc(b1-3)Gal(b1-4)GlcNAc(b1-2)[Gal(b1-4)GlcNAc(b1-3)Gal(b1-4)GlcNAc(b1-6)]Man(a1-6)[Gal(b1-4)GlcNAc(b1-3)Gal(b1-4)GlcNAc(b1-2)Man(a1-3)]Man(b1-4)GlcNAc(b1-4)[Fuc(a1-6)]GlcNAc
# Summary of the method: as §1
# [30] = target: Gal(b1-4)GlcNAc(b1-3)Gal(b1-4)GlcNAc(b1-3)Gal(b1-4)GlcNAc
# Summary of the method: as §1
# [31] = target: Gal(b1-4)GlcNAc(b1-3)Gal(b1-4)GlcNAc(b1-3)Gal(b1-4)GlcNAc(b1-2)Man(a1-3)[Gal(b1-4)GlcNAc(b1-3)Gal(b1-4)GlcNAc(b1-3)Gal(b1-4)GlcNAc(b1-2)Man(a1-6)]Man(b1-4)GlcNAc(b1-4)GlcNAc
# Summary of the method: as §1
# [32] = target: Gal(b1-4)GlcNAc(b1-3)Gal(b1-4)GlcNAc(b1-3)Gal(b1-4)GlcNAc(b1-2)Man(a1-3)[Gal(b1-4)GlcNAc(b1-3)Gal(b1-4)GlcNAc(b1-3)Gal(b1-4)GlcNAc(b1-2)Man(a1-6)]Man(b1-4)GlcNAc(b1-4)[Fuc(a1-6)]GlcNAc
# Summary of the method: as §1
# [33] = target: Gal(b1-4)GlcNAc(b1-3)Gal(b1-4)GlcNAc(b1-3)Gal(b1-4)GlcNAc(b1-2)[Gal(b1-4)GlcNAc(b1-3)Gal(b1-4)GlcNAc(b1-3)Gal(b1-4)GlcNAc(b1-6)]Man(a1-6)[Gal(b1-4)GlcNAc(b1-3)Gal(b1-4)GlcNAc(b1-3)Gal(b1-4)GlcNAc(b1-2)Man(a1-3)]Man(b1-4)GlcNAc(b1-4)[Fuc(a1-6)]GlcNAc
# Summary of the method: as §1
binder,measurement,setting,value
B1,glycan array binding signal (z-score),[1],-0.445
same,glycan array binding signal (z-score),Gal(b1-4)Glc,-0.241
same,glycan array binding signal (z-score),Gal(b1-4)Glc6S,1.09
same,glycan array binding signal (z-score),Gal(b1-4)GlcNAc,-0.35
same,glycan array binding signal (z-score),[2],-0.045
same,glycan array binding signal (z-score),Gal(b1-4)GlcNAc(b1-2)Man,-0.207
same,glycan array binding signal (z-score),[3],0.285
same,glycan array binding signal (z-score),[4],-0.712
same,glycan array binding signal (z-score),[5],-0.445
same,glycan array binding signal (z-score),[6],-0.712
same,glycan array binding signal (z-score),[7],0.054
same,glycan array binding signal (z-score),[8],-0.019
same,glycan array binding signal (z-score),[9],-0.185
same,glycan array binding signal (z-score),[10],-0.444
same,glycan array binding signal (z-score),[11],-0.645
same,glycan array binding signal (z-score),[12],-0.264
same,glycan array binding signal (z-score),[13],-0.242
same,glycan array binding signal (z-score),[14],0.702
same,glycan array binding signal (z-score),[15],-0.661
same,glycan array binding signal (z-score),[16],-0.557
same,glycan array binding signal (z-score),[17],-0.651
same,glycan array binding signal (z-score),[18],-0.462
same,glycan array binding signal (z-score),[19],0.42
same,glycan array binding signal (z-score),[20],-0.508
same,glycan array binding signal (z-score),[21],-0.829
same,glycan array binding signal (z-score),[22],0.052
same,glycan array binding signal (z-score),[23],-0.314
same,glycan array binding signal (z-score),[24],-0.089
same,glycan array binding signal (z-score),[25],-0.153
same,glycan array binding signal (z-score),[26],0.515
same,glycan array binding signal (z-score),[27],-0.27
same,glycan array binding signal (z-score),[28],0.954
same,glycan array binding signal (z-score),[29],-0.098
same,glycan array binding signal (z-score),[30],-0.161
same,glycan array binding signal (z-score),[31],0.514
same,glycan array binding signal (z-score),[32],-0.845
same,glycan array binding signal (z-score),[33],-0.248

# Shown tab-delimited: part of the list above
binder	measurement	setting	value
B1	glycan array binding signal (z-score)	[24]	-0.089
same	glycan array binding signal (z-score)	[25]	-0.153
